PubChem BioAssay AID652259, Drosophila RNAi Screening Center | 2013
The screen tested about 22,000 reagents; shown is an unselected part of those with a known target gene and a result. Over the whole deposit, 233 (1.1%) got an active call. 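Light values are raw, unnormalised plate reads; the ratio scores behind the reporter calls were not deposited.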 Entries without a mark were called inactive. A plus sign joins genes that one reagent is predicted to hit. Not given: the amount of reagent, the time to read-out, the dose of the treatment.

Test: 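Genome-wide hunt for genes that control Wingless pathway activity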 (primary screen)
Cell system: Drosophila clone 8 imaginal disc epithelial cells
Knock-down reagent: long dsRNA against Drosophila genes
Treatment: pathway stimulated by co-transfected Wingless expression plasmid
Detection: 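Dual luciferase reads per well after Wingless plasmid stimulation: reporter firefly light and Renilla control light; activity is firefly divided by Renilla, a ratio not deposited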
Scale: firefly reporter light: higher = more Wg reporter light, before normalisation; Renilla control light: higher = more transfected or surviving cells
Call rule: 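Strong candidates differ from their plate mean by at least two out of four per-plate statistical tests; weak candidates meet just one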
Meaning of the calls: active = candidate regulator (raises or lowers reporter); inactive = not a candidate

CG4830 [DRSC15657] | firefly reporter light, replicate 1: 14151; Renilla control light, replicate 1: 4836
omd [DRSC16507] | firefly reporter light, replicate 1: 5625; Renilla control light, replicate 1: 2712
sqd [DRSC15160] | firefly reporter light, replicate 1: 24017; Renilla control light, replicate 1: 2361
sqd [DRSC17066] | firefly reporter light, replicate 1: 7780; Renilla control light, replicate 1: 2202
sqd [DRSC22954] | firefly reporter light, replicate 1: 5.16e5; firefly reporter light, replicate 2: 5.03e5; Renilla control light, replicate 1: 2.66e5; Renilla control light, replicate 2: 2.39e5
Mid1 [DRSC04230] | firefly reporter light, replicate 1: 2849; firefly reporter light, replicate 2: 8144; Renilla control light, replicate 1: 960; Renilla control light, replicate 2: 2258
Mid1 [DRSC04231] | firefly reporter light, replicate 1: 3664; firefly reporter light, replicate 2: 10380; Renilla control light, replicate 1: 1201; Renilla control light, replicate 2: 3536
Mid1 [DRSC04308] | firefly reporter light, replicate 1: 3137; firefly reporter light, replicate 2: 7752; Renilla control light, replicate 1: 972; Renilla control light, replicate 2: 2833
Mid1 [DRSC22773] | firefly reporter light, replicate 1: 5.90e5; firefly reporter light, replicate 2: 6.11e5; Renilla control light, replicate 1: 2.36e5; Renilla control light, replicate 2: 2.03e5
Mid1 [DRSC22803] | firefly reporter light, replicate 1: 3.60e5; firefly reporter light, replicate 2: 4.03e5; Renilla control light, replicate 1: 1.86e5; Renilla control light, replicate 2: 2.13e5
CG13151 [DRSC06276] | firefly reporter light, replicate 1: 5703; Renilla control light, replicate 1: 2320
salr [DRSC03607] | firefly reporter light, replicate 1: 3988; firefly reporter light, replicate 2: 8138; Renilla control light, replicate 1: 518; Renilla control light, replicate 2: 2770
Ykt6 [DRSC17970] | firefly reporter light, replicate 1: 2493; firefly reporter light, replicate 2: 5064; Renilla control light, replicate 1: 873; Renilla control light, replicate 2: 1444
CG31204 [DRSC15106] | firefly reporter light, replicate 1: 14668; Renilla control light, replicate 1: 7187
Tbcd [DRSC00273] | firefly reporter light, replicate 1: 7893; Renilla control light, replicate 1: 2699
Cyp313a2 [DRSC16625] | firefly reporter light, replicate 1: 15065; Renilla control light, replicate 1: 3885

Limited to “firefly reporter light, replicate 1”, for 4 of the entries above:
sqd [DRSC22954] = 5.16e5
Mid1 [DRSC04230] = 2849
Mid1 [DRSC04231] = 3664
Mid1 [DRSC04308] = 3137

Continued.
Pcmt [DRSC12363] | firefly reporter light, replicate 1: 22760; Renilla control light, replicate 1: 5632
NimB4 [DRSC01884] | firefly reporter light, replicate 1: 6890; Renilla control light, replicate 1: 2285
GILT2 [DRSC14196] | firefly reporter light, replicate 1: 3298; firefly reporter light, replicate 2: 8610; Renilla control light, replicate 1: 1408; Renilla control light, replicate 2: 2704
Lcp1Psi [DRSC05105] | firefly reporter light, replicate 1: 20368; Renilla control light, replicate 1: 11219
CG13894 [DRSC08364] | reporter change call, replicate 1: Wg reporter activity raised (active); firefly reporter light, replicate 1: 8475; Renilla control light, replicate 1: 1106
CG44014 + CG44013 [DRSC14995] | firefly reporter light, replicate 1: 20935; Renilla control light, replicate 1: 5031
aux [DRSC12161] | firefly reporter light, replicate 1: 7867; Renilla control light, replicate 1: 2817
CG4480 [DRSC02750] | firefly reporter light, replicate 1: 2090; firefly reporter light, replicate 2: 4299; Renilla control light, replicate 1: 954; Renilla control light, replicate 2: 2283
CG1888 [DRSC06797] | firefly reporter light, replicate 1: 3131; firefly reporter light, replicate 2: 8374; Renilla control light, replicate 1: 708; Renilla control light, replicate 2: 3688
